# Experimental data from the supplement of paper PMC6411743.
# ± gives the standard deviation of the averaged measurements. Only a part is listed here, and it is no random draw.
# How the values were obtained:
# Assay in all cases: NP40-soluble protein abundance relative to vehicle (solubility fold change) (ratio); higher = more soluble protein in presence of AMP-PNP
# DNAJB2 = target: T1, DNAJB2 (UniProt P25686)
# T1 sequence (whole entry): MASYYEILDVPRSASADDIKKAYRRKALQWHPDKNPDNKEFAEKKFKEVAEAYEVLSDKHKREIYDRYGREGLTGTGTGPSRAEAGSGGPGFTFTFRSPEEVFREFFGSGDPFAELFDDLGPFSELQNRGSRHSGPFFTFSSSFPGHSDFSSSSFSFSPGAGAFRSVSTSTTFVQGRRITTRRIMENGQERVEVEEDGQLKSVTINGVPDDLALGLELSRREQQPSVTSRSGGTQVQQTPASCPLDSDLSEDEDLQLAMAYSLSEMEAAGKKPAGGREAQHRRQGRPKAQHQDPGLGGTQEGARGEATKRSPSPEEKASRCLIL
# Outline: (§1)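 Data come from three independent experiments in which Dounce-homogenised Jurkat crude lysate was treated at eight concentrations from 0.1 to 10 mM. Treatment ran 10 min at room temperature and then 3 min at 37 °C, after which 0.8% NP40 and benzonase were added for 60 min at 4 °C before ultracentrifugation. The supernatant underwent TMT labelling and LC-MS/MS, and vsn-normalised intensities were expressed as fold change against the detergent-processed vehicle in each replicate.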
# GALNS = target: T2, GALNS (UniProt P34059)
# T2 sequence (whole entry): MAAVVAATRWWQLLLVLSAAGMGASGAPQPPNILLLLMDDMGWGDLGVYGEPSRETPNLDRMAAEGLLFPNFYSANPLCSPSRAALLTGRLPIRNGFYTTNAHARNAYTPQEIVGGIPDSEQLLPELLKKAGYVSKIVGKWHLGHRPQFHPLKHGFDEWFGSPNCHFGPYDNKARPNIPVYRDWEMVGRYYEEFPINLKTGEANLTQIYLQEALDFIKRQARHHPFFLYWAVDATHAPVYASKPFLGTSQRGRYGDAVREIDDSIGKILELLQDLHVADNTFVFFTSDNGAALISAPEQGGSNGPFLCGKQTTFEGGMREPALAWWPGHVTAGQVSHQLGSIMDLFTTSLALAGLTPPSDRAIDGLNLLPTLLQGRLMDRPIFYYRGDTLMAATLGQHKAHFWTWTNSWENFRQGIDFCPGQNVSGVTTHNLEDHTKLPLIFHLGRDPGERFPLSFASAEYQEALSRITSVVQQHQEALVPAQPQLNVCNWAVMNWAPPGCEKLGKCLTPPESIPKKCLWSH
# Outline: as §1
# GBP1 = target: T3, GBP1 (UniProt P32455)
# T3 sequence (whole entry): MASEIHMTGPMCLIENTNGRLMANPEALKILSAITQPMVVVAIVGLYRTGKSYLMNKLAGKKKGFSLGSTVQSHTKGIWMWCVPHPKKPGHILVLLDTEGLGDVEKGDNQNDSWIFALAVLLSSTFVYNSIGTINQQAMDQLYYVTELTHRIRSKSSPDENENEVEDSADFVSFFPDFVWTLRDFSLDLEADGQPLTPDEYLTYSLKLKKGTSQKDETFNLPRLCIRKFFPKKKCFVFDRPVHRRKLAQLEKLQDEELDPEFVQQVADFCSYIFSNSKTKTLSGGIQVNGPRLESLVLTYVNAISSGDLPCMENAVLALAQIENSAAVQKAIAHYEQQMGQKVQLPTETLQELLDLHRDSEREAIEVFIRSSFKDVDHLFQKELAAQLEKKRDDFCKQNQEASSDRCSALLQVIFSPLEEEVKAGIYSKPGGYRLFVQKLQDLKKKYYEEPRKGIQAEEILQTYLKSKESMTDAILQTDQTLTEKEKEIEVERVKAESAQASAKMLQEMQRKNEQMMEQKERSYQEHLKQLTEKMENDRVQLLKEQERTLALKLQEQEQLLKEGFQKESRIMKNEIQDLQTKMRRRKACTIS
# Outline: as §1
# GLRX = target: T4, GLRX (UniProt P35754)
# T4 sequence (whole entry): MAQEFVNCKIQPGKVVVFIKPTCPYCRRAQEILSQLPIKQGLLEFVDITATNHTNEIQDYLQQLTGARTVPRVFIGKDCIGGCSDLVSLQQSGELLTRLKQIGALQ
# Outline: as §1
# GSTM3 = target: T5, GSTM3 (UniProt P21266)
# T5 sequence (whole entry): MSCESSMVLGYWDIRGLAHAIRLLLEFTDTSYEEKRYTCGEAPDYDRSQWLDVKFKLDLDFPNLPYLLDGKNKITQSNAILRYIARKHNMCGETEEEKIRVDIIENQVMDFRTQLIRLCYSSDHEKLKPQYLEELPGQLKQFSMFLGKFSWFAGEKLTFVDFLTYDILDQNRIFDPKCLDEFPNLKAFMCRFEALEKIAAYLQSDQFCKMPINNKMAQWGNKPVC
# Outline: as §1
# JUND = target: T6, JUND (UniProt P17535)
# T6 sequence (whole entry): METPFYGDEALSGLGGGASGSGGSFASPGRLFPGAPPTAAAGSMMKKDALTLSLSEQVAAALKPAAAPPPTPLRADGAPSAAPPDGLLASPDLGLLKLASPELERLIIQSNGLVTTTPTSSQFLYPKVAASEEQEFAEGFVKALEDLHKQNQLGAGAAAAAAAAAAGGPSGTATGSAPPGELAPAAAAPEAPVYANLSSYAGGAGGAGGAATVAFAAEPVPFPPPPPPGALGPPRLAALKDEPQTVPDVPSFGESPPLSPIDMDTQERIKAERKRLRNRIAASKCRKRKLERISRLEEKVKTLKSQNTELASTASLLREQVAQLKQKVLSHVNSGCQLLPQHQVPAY
# Outline: as §1
# PHB = target: T7, PHB (UniProt P35232)
# T7 sequence (whole entry): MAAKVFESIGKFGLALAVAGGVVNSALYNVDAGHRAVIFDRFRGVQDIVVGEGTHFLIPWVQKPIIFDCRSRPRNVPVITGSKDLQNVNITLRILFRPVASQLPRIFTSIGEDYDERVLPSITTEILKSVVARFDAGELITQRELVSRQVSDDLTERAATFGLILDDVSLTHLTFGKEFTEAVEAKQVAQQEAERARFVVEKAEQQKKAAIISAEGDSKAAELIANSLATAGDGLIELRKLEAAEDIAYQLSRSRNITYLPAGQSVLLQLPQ
# Outline: as §1
# PPM1A = target: T8, PPM1A (UniProt P35813)
# T8 sequence (whole entry): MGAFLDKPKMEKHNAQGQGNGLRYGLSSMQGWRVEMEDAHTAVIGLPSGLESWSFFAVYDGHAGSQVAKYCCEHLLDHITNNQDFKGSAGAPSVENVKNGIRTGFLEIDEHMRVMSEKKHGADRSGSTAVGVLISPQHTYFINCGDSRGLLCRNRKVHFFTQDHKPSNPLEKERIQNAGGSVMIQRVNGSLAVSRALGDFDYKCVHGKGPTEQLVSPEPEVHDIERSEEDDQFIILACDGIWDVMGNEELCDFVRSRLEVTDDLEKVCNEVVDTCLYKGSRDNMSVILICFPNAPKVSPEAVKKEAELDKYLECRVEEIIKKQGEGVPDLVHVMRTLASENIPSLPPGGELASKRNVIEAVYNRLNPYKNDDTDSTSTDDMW
# Outline: as §1
structure (smiles),measurement,setting,value
Nc1ncnc2c1ncn2[C@@H]1O[C@H](COP(=O)(O)OP(=O)(O)NP(=O)(O)O)[C@@H](O)[C@H]1O [adenylyl imidodiphosphate],NP40-soluble protein abundance,DNAJB2; concentration: 1mM,0.946 ± 0.043
same,NP40-soluble protein abundance,DNAJB2; concentration: 2mM,0.991 ± 0.037
same,NP40-soluble protein abundance,DNAJB2; concentration: 4mM,0.939 ± 0.017
same,NP40-soluble protein abundance,DNAJB2; concentration: 6mM,0.943 ± 0.046
same,NP40-soluble protein abundance,DNAJB2; concentration: 8mM,0.934 ± 0.015
same,NP40-soluble protein abundance,DNAJB2; concentration: 10mM,0.9511 ± 0.0087
same,NP40-soluble protein abundance,GALNS; concentration: 1mM,0.986 ± 0.018
same,NP40-soluble protein abundance,GALNS; concentration: 2mM,0.972 ± 0.011
same,NP40-soluble protein abundance,GALNS; concentration: 4mM,0.957 ± 0.04
same,NP40-soluble protein abundance,GALNS; concentration: 6mM,0.963 ± 0.019
same,NP40-soluble protein abundance,GALNS; concentration: 8mM,0.933 ± 0.034
same,NP40-soluble protein abundance,GALNS; concentration: 10mM,0.975 ± 0.027
same,NP40-soluble protein abundance,GBP1; concentration: 1mM,1.023 ± 0.0016
same,NP40-soluble protein abundance,GBP1; concentration: 2mM,1.06 ± 0.043
same,NP40-soluble protein abundance,GBP1; concentration: 4mM,1.02 ± 0.034
same,NP40-soluble protein abundance,GBP1; concentration: 6mM,1.01 ± 0.024
same,NP40-soluble protein abundance,GBP1; concentration: 8mM,0.996 ± 0.038
same,NP40-soluble protein abundance,GBP1; concentration: 10mM,1.02 ± 0.043
same,NP40-soluble protein abundance,GLRX; concentration: 1mM,0.997 ± 0.033
same,NP40-soluble protein abundance,GLRX; concentration: 2mM,1.01 ± 0.028
same,NP40-soluble protein abundance,GLRX; concentration: 4mM,1.01 ± 0.027
same,NP40-soluble protein abundance,GLRX; concentration: 6mM,0.966 ± 0.016
same,NP40-soluble protein abundance,GLRX; concentration: 8mM,0.977 ± 0.019
same,NP40-soluble protein abundance,GLRX; concentration: 10mM,0.941 ± 0.029
same,NP40-soluble protein abundance,GSTM3; concentration: 1mM,1.01 ± 0.064
same,NP40-soluble protein abundance,GSTM3; concentration: 2mM,0.937 ± 0.029
same,NP40-soluble protein abundance,GSTM3; concentration: 4mM,1.02 ± 0.059
same,NP40-soluble protein abundance,GSTM3; concentration: 6mM,1.14 ± 0.13
same,NP40-soluble protein abundance,GSTM3; concentration: 8mM,1.13 ± 0.097
same,NP40-soluble protein abundance,GSTM3; concentration: 10mM,1.06 ± 0.078
same,NP40-soluble protein abundance,JUND; concentration: 1mM,0.977 ± 0.048
same,NP40-soluble protein abundance,JUND; concentration: 2mM,1.01 ± 0.022
same,NP40-soluble protein abundance,JUND; concentration: 4mM,0.955 ± 0.032
same,NP40-soluble protein abundance,JUND; concentration: 6mM,0.941 ± 0.078
same,NP40-soluble protein abundance,JUND; concentration: 8mM,0.933 ± 0.055
same,NP40-soluble protein abundance,JUND; concentration: 10mM,0.911 ± 0.051
same,NP40-soluble protein abundance,PHB; concentration: 1mM,0.956 ± 0.051
same,NP40-soluble protein abundance,PHB; concentration: 2mM,0.922 ± 0.1
same,NP40-soluble protein abundance,PHB; concentration: 4mM,0.914 ± 0.053
same,NP40-soluble protein abundance,PHB; concentration: 6mM,0.929 ± 0.066
same,NP40-soluble protein abundance,PHB; concentration: 8mM,0.916 ± 0.054
same,NP40-soluble protein abundance,PHB; concentration: 10mM,0.914 ± 0.061
same,NP40-soluble protein abundance,PPM1A; concentration: 1mM,1.07 ± 0.016
same,NP40-soluble protein abundance,PPM1A; concentration: 2mM,1.052 ± 0.0096
same,NP40-soluble protein abundance,PPM1A; concentration: 4mM,1.01 ± 0.033

# Part of the list above, bar-delimited.
structure (smiles) | measurement | setting | value
Nc1ncnc2c1ncn2[C@@H]1O[C@H](COP(=O)(O)OP(=O)(O)NP(=O)(O)O)[C@@H](O)[C@H]1O [adenylyl imidodiphosphate] | NP40-soluble protein abundance | PHB; concentration: 1mM | 0.956 ± 0.051
same | NP40-soluble protein abundance | PHB; concentration: 2mM | 0.922 ± 0.1
same | NP40-soluble protein abundance | PHB; concentration: 4mM | 0.914 ± 0.053
same | NP40-soluble protein abundance | PHB; concentration: 6mM | 0.929 ± 0.066
same | NP40-soluble protein abundance | PHB; concentration: 8mM | 0.916 ± 0.054
same | NP40-soluble protein abundance | PHB; concentration: 10mM | 0.914 ± 0.061
same | NP40-soluble protein abundance | PPM1A; concentration: 1mM | 1.07 ± 0.016
same | NP40-soluble protein abundance | PPM1A; concentration: 2mM | 1.052 ± 0.0096
